PubChem BioAssay AID743121 – NCATS, 2013
This is one part, drawn at random, of about 26,000 reagents tested. 167 of all reagents (0.63%) were called active. 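Calls are per gene from RSA p-values that are not deposited; an individual active-marked siRNA can sensitise only weakly.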 Reagents against one gene are numbered here. Further read-outs or replicates are left out here. No sequences are given here.

Screen: 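Partners whose loss is lethal together with topoisomerase I blockade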 (primary screen)
Cells: MDA-MB-231 cells, a human breast cancer line
Reagent: single siRNA against human genes, 20 nM siRNA (0.8 pmol per well)
Time to read-out: 120 h (drug added 48 h after transfection, read 72 h later)
Conditions: camptothecin 20 nM (about EC30) for 72 h; vehicle 0.1% DMSO in parallel plates
Measured: 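CellTiter-Glo ATP signal, scaled to control siRNA as percent viability; sensitisation given as log2 of untreated divided by camptothecin-treated viability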
Scale: log2 vehicle/camptothecin viability: higher = stronger sensitisation to camptothecin; viability with camptothecin: higher = more viable cells
Rule for the call: 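Each gene scored by redundant siRNA activity (RSA) over its individual siRNA ratios; a gene is called active at p < 0.001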

PRTN3 (proteinase 3) #1 gave log2 vehicle/camptothecin viability 0.502; viability with camptothecin (% of control) = 40.3; inactive.
Against PRTN3 (proteinase 3) #2, the values are log2 vehicle/camptothecin viability -0.142; viability with camptothecin (% of control) = 90.4; inactive.
Knock-down of PRTN3 (proteinase 3) #3 came out at: log2 vehicle/camptothecin viability 0.738; viability with camptothecin (% of control) = 45.7; inactive.
For PRTN3 (proteinase 3) #4, the entry reads log2 vehicle/camptothecin viability 0.0789; viability with camptothecin (% of control) = 81.7; inactive.
Depletion of ABCF3 (ATP binding cassette subfamily F member 3) #1 gave: log2 vehicle/camptothecin viability 0.0265; viability with camptothecin (% of control) = 81.6; inactive.
Silencing of ABCF3 (ATP binding cassette subfamily F member 3) #2 resulted in: log2 vehicle/camptothecin viability -0.207; viability with camptothecin (% of control) = 92.6; inactive.
ABCF3 (ATP binding cassette subfamily F member 3) #3 scored log2 vehicle/camptothecin viability -0.179; viability with camptothecin (% of control) = 93.6; inactive.
With knock-down of ABCF3 (ATP binding cassette subfamily F member 3) #4, the screen gave log2 vehicle/camptothecin viability -0.246; viability with camptothecin (% of control) = 82.2; inactive.
For AKAP8L (A-kinase anchoring protein 8 like) #1 the deposit lists log2 vehicle/camptothecin viability -0.313; viability with camptothecin (% of control) = 113; inactive.
Against AKAP8L (A-kinase anchoring protein 8 like) #2, the entry reads log2 vehicle/camptothecin viability -0.0593; viability with camptothecin (% of control) = 66; inactive.
For AKAP8L (A-kinase anchoring protein 8 like) #3, the values are log2 vehicle/camptothecin viability -0.258; viability with camptothecin (% of control) = 74; inactive.
After knock-down of AKAP8L (A-kinase anchoring protein 8 like) #4, the screen gave log2 vehicle/camptothecin viability -0.293; viability with camptothecin (% of control) = 123; inactive.
For TRIM49 (tripartite motif containing 49) #1 the deposit lists log2 vehicle/camptothecin viability -0.51; viability with camptothecin (% of control) = 117; inactive.
Depletion of TRIM49 (tripartite motif containing 49) #2 came out at: log2 vehicle/camptothecin viability -0.0356; viability with camptothecin (% of control) = 105; inactive.
Against TRIM49 (tripartite motif containing 49) #3, the values are log2 vehicle/camptothecin viability -0.238; viability with camptothecin (% of control) = 57.1; inactive.
With knock-down of TRIM49 (tripartite motif containing 49) #4 the results were log2 vehicle/camptothecin viability -0.32; viability with camptothecin (% of control) = 111; inactive.
Depletion of EYS (EGF-like photoreceptor maintenance factor) #1 gave: log2 vehicle/camptothecin viability -0.14; viability with camptothecin (% of control) = 88.2; inactive.
With knock-down of EYS (EGF-like photoreceptor maintenance factor) #2 the results were log2 vehicle/camptothecin viability -0.137; viability with camptothecin (% of control) = 121; inactive.
Silencing of EYS (EGF-like photoreceptor maintenance factor) #3 resulted in: log2 vehicle/camptothecin viability -0.242; viability with camptothecin (% of control) = 80.9; inactive.
After knock-down of EYS (EGF-like photoreceptor maintenance factor) #4, the screen gave log2 vehicle/camptothecin viability 0.0613; viability with camptothecin (% of control) = 107; inactive.
Knock-down of TRHDE (thyrotropin releasing hormone degrading enzyme) #1 came out at: log2 vehicle/camptothecin viability 0.155; viability with camptothecin (% of control) = 89.6; inactive.
Against TRHDE (thyrotropin releasing hormone degrading enzyme) #2, the entry reads log2 vehicle/camptothecin viability -0.0219; viability with camptothecin (% of control) = 58.2; inactive.
Depletion of TRHDE (thyrotropin releasing hormone degrading enzyme) #3 gave: log2 vehicle/camptothecin viability -0.244; viability with camptothecin (% of control) = 100; inactive.
TRHDE (thyrotropin releasing hormone degrading enzyme) #4 scored log2 vehicle/camptothecin viability 0.202; viability with camptothecin (% of control) = 61.8; inactive.
With knock-down of WDR24 (WD repeat domain 24) #1, the screen gave log2 vehicle/camptothecin viability -0.379; viability with camptothecin (% of control) = 35.3; inactive.
WDR24 (WD repeat domain 24) #2 scored log2 vehicle/camptothecin viability -0.359; viability with camptothecin (% of control) = 88.1; inactive.
After knock-down of WDR24 (WD repeat domain 24) #3 the results were log2 vehicle/camptothecin viability -0.126; viability with camptothecin (% of control) = 92.5; inactive.
WDR24 (WD repeat domain 24) #4 scored log2 vehicle/camptothecin viability 0.301; viability with camptothecin (% of control) = 57.6; inactive.
TNFAIP3 (TNF alpha induced protein 3) #1 gave log2 vehicle/camptothecin viability -0.0487; viability with camptothecin (% of control) = 39; inactive.
With knock-down of TNFAIP3 (TNF alpha induced protein 3) #2 the results were log2 vehicle/camptothecin viability 0.811; viability with camptothecin (% of control) = 34.3; inactive.
Silencing of TNFAIP3 (TNF alpha induced protein 3) #3 gave: log2 vehicle/camptothecin viability 0.0276; viability with camptothecin (% of control) = 40.4; inactive.
After knock-down of DCST1 (DC-STAMP domain containing 1) #1, the record shows log2 vehicle/camptothecin viability -0.0403; viability with camptothecin (% of control) = 76.4; inactive.
Silencing of DCST1 (DC-STAMP domain containing 1) #2 gave: log2 vehicle/camptothecin viability -0.0871; viability with camptothecin (% of control) = 86.4; inactive.
DCST1 (DC-STAMP domain containing 1) #3 showed log2 vehicle/camptothecin viability -0.395; viability with camptothecin (% of control) = 20.1; inactive.
For ID1 (inhibitor of DNA binding 1) #1, the entry reads log2 vehicle/camptothecin viability -0.647; viability with camptothecin (% of control) = 62.3; inactive.
Against ID1 (inhibitor of DNA binding 1) #2, the entry reads log2 vehicle/camptothecin viability -0.157; viability with camptothecin (% of control) = 96; inactive.
ID1 (inhibitor of DNA binding 1) #3 showed log2 vehicle/camptothecin viability -0.564; viability with camptothecin (% of control) = 73.1; inactive.
Knock-down of RRAS (RAS related) #1 gave: log2 vehicle/camptothecin viability 0.179; viability with camptothecin (% of control) = 79.2; inactive.
Silencing of RRAS (RAS related) #2 came out at: log2 vehicle/camptothecin viability -0.165; viability with camptothecin (% of control) = 85.5; inactive.
Depletion of RRAS (RAS related) #3 gave: log2 vehicle/camptothecin viability -0.681; viability with camptothecin (% of control) = 52.4; inactive.
For RRAS (RAS related) #4 the deposit lists log2 vehicle/camptothecin viability -0.488; viability with camptothecin (% of control) = 23.5; inactive.
For ADGRG6 (adhesion G protein-coupled receptor G6) #1, the values are log2 vehicle/camptothecin viability -0.327; viability with camptothecin (% of control) = 86; inactive.
ADGRG6 (adhesion G protein-coupled receptor G6) #2 showed log2 vehicle/camptothecin viability -0.285; viability with camptothecin (% of control) = 121; inactive.
Knock-down of ADGRG6 (adhesion G protein-coupled receptor G6) #3 gave: log2 vehicle/camptothecin viability -0.0812; viability with camptothecin (% of control) = 82.9; inactive.
ADGRG6 (adhesion G protein-coupled receptor G6) #4 showed log2 vehicle/camptothecin viability -0.613; viability with camptothecin (% of control) = 110; inactive.

A stretch of the results above:
RRAS (RAS related) #4 — log2 vehicle/camptothecin viability: -0.488; viability with camptothecin (% of control): 23.5; Outcome: inactive
ADGRG6 (adhesion G protein-coupled receptor G6) #1 — log2 vehicle/camptothecin viability: -0.327; viability with camptothecin (% of control): 86; Outcome: inactive
